# The whole screen tested about 220,000 compounds, of which about 2,400 (1.1%) were called active. This list was built around the results that the source calls inconclusive (neither active nor inactive); the mix of calls is not that of the screen. The call rests on the fitted dose curve; in most records, active means well fitted inhibition curve with a large enough effect; inconclusive means small, poorly fitted or top-dose-only effect, or effect the other way; inactive means no such curve, though single readings can be large or run the other way. Potencies beside an inconclusive call are fits to weak or partial responses and may not hold up.
# Test: qHTS Multiplex Assay to Identify Dual Action Probes in a Cell Model of Huntington: Aggregate Formation (GFP); further: nearly all actives have a fitted effect of over 60% in size
# Settings: PC12 HttQ103-GFP aggregates, Acumen cytometry, 40 h; activity change, negative = inhibition: at 46.1 µM (top of the series) unless noted
# Procedure, shortened: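 PC12 cells with ecdysone-inducible HTT exon1 Q103-GFP, induced by 100 nM tebufenozide, given compounds in a concentration series. GFP aggregates (1–25 um, 6 SD above background) counted in lysates by laser-scanning cytometry, 488 nm excitation.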
# On the % scale 0 is the no-effect control and ±100 the full control effect; potency means the concentration at half of the fitted maximal effect.
SMILES,Potency,"activity change, negative = inhibition"
CCCC[n+]1ccn(C2=C([O-])c3ccccc3C(=O)/C2=N\S(=O)(=O)c2ccc(Br)cc2)c1,"inconclusive: 15.8 µM [inhibitor, single point]",–
c1ccc(-n2nnnc2SCc2cccc(CSc3nnnn3-c3ccccc3)n2)cc1,–,inactive: -0.793%
COc1cccc(C2c3c(oc4ccc(F)cc4c3=O)C(=O)N2CCN2CCOCC2)c1OC (stereo unspecified),–,inactive: -4.81%
COc1ccc(CNc2nc3ccccc3n2Cc2ccc(Cl)cc2)cc1OC,"inconclusive: 11.2 µM [inhibitor, partial curve]",–
CC(C)OCC1CC(CC(=O)NC(=S)Nc2cccc([N+](=O)[O-])c2)C(=O)O1 (stereo unspecified),–,inactive: 11.2%
Clc1ccccc1Oc1cnc2ccccc2n1,"inconclusive: 1.26 µM [inhibitor, single point]",–
CN(C)/N=C/c1cc(Cl)cc([N+](=O)[O-])c1O,"inconclusive: 35.5 µM [inhibitor, single point]",–
Cc1cccc(C)c1OCC(=O)Nc1ccc(NC(=O)c2ccco2)cc1,–,inactive: -25.3% [at 9.22 µM]
Fc1ccc(NC(=S)Nc2ccc(F)c(Cl)c2)cc1Cl,"inconclusive: 11.2 µM [inhibitor, partial curve]",–
O=C(NCc1ccc(F)cc1)c1ccc(N2CCc3ccccc32)c([N+](=O)[O-])c1,–,inactive: -14.8%
N#CC1=C(N)n2c(s/c(=C\c3cccs3)c2=O)=C(C#N)C1c1cccs1 (stereo unspecified),"inconclusive: 3.16 µM [inhibitor, partial curve]",–
O=S(c1ccc2ccccc2c1)c1cnns1 (stereo unspecified),active: 17.8 µM,–
Cc1ccc(S(=O)(=O)N2CCN(Cc3nc4sc(C)c(C)c4c(=O)[nH]3)CC2)cc1,"inconclusive: 12.6 µM [activator, single point]",–
Cc1nn(Cc2ccccc2)c(Cl)c1/C=C1\NC(=S)NC1=O,"inconclusive: 25.1 µM [activator, partial curve]",–
CN(C)CCCNC(=S)NCCNc1nc2cc3c(cc2cc1C#N)OCO3,–,inactive: 6.16%
CN(C)c1nc(=NCc2ccco2)ss1,active: 0.891 µM,–
O=C(Cc1ccccc1)NCC(=O)OCC(=O)c1cccc([N+](=O)[O-])c1,"inconclusive: 5.62 µM [inhibitor, single point]",–
O=C(Nc1ccc(O)c(-c2nc3ccccc3o2)c1)C1(c2ccc([N+](=O)[O-])cc2)CCCC1,"inconclusive: 35.5 µM [activator, single point]",–
O=C(NCC1CCCO1)C1CCN(C2CCN(C3CCCCCC3)CC2)CC1 (stereo unspecified),–,inactive: 13.1% [at 9.22 µM]
COC(=O)C1NN=C(C(=O)c2ccc(Cl)cc2)C1c1ccc(OC)cc1 (stereo unspecified),–,inactive: -3.12%
C=CCSc1nnc(NC(=O)c2cccc(S(=O)(=O)N3CCOCC3)c2)s1,–,inactive: -15.9%
Cc1ccn2c(Nc3ccccc3C)c(-c3cccnc3)nc2c1,"inconclusive: 12.6 µM [activator, single point]",–
COc1ccc2cc(C(=O)C3CCCN(C(=O)CSc4nnc(C)o4)C3)ccc2c1 (stereo unspecified),"inconclusive: 4.47 µM [inhibitor, single point]",–
CCN(CC)S(=O)(=O)c1cc(C(=O)N2CCc3ccccc32)ccc1Cl,"inconclusive: 20 µM [inhibitor, single point]",–

SMILES,Potency,"activity change, negative = inhibition"
C=CC1=C(C(=O)O)N2C(=O)C(NC(=O)Cc3ccccc3)C2SC1 (stereo unspecified),"inconclusive: 35.5 µM [activator, single point]",–
O=C1C(=O)N(Cc2ccco2)C(c2cccc(Cl)c2)/C1=C(\O)c1ccc2c(c1)OCCO2 (stereo unspecified),–,inactive: -2.03%
CCOc1ccccc1N/C=C/C(=O)C(C)(C)C,–,inactive: 12.9%
Cc1ccc(C(=O)NCCOC23CC4CC(CC(C4)C2)C3)cc1,"inconclusive: 35.5 µM [inhibitor, single point]",–
CCCCC(=O)Nc1nc(C)c(-c2csc(Nc3ccccc3OC)n2)s1,"inconclusive: 28.2 µM [inhibitor, single point]",–
CCCOc1cc(C)c(S(=O)(=O)NC2CC(C)(C)NC(C)(C)C2)cc1C,–,inactive: -9.61%
Cc1c(C(=O)O)sc2ncnc(N3CCCCC3C)c12 (stereo unspecified),–,inactive: -25.1%
Cc1ccc2cccc(OCc3nnc(SCC(=O)O)n3C)c2n1,"inconclusive: 6.31 µM [activator, single point]",–
COc1cc(CSc2nnnn2-c2ccc(C)cc2)cc(OC)c1OC,active: 2.51 µM,–
O=C(NC1CC1)c1scc2c1OCCO2,"inconclusive: 35.5 µM [inhibitor, single point]",–
c1ccc(C(Cc2nc(-c3ccncc3)no2)c2ccccc2)cc1,"inconclusive: 12.6 µM [inhibitor, partial curve, poor fit]",–
Cc1ccc(Nc2nc(-c3cccnc3)nc3ccccc23)cc1,"inconclusive: 5.62 µM [inhibitor, single point]",–
O=c1cc(-c2ccccc2Cl)oc2ccc([N+](=O)[O-])c(O)c12,"inconclusive: 15.8 µM [inhibitor, single point]",–
Cc1nnc(Sc2cc(NCCCO)c([N+](=O)[O-])c3nonc23)s1,"inconclusive: 35.5 µM [inhibitor, single point]",–
CCSc1nnc(NC(=O)C2CCCCC2C(=O)O)s1 (stereo unspecified),"inconclusive: 35.5 µM [activator, single point]",–
Cc1ccc(Nc2nc(-c3c(C)nc4ccccn34)cs2)cc1,"inconclusive: 1 µM [inhibitor, partial curve]",–
COc1ccc(-c2noc(CN(C)S(=O)(=O)c3ccc(Cl)cc3)n2)cc1OC,"inconclusive: 35.5 µM [inhibitor, single point]",–
Fc1ccc2[nH]c3c(NCCN4CCOCC4)ncnc3c2c1,"inconclusive: 6.31 µM [inhibitor, partial curve]",–
CCCCNC(=O)c1nc2ncc(Br)cn2n1,"inconclusive: 7.08 µM [activator, partial curve]",–
Cc1c(NC(=O)CN2C(=O)NC(C)(c3ccc4c(c3)OCCO4)C2=O)c(=O)n(-c2ccccc2)n1C (stereo unspecified),"inconclusive: 5.62 µM [inhibitor, single point]",–
C/C(=N\NC(=O)c1cccnc1)c1nnn(-c2nonc2N)c1C,–,inactive: -2.45%
COC(=O)C(NC(=O)c1ccc(C)cc1)(Nc1cccc(C)n1)C(F)(F)F (stereo unspecified),–,inactive: 2.79%
COc1cc2c(cc1NC(=O)C(C)Sc1ccc(C)cc1)oc1ccccc12 (stereo unspecified),"inconclusive: 12.6 µM [inhibitor, single point]",–
O=S1(=O)CCN(Cc2ccc(Cl)c(Cl)c2)CC1,–,inactive: -11.9%

# Full records from above:
# `CCCCNC(=O)c1nc2ncc(Br)cn2n1` in the list: Potency: inconclusive: 7.08 µM [activator, partial curve]
# `O=S1(=O)CCN(Cc2ccc(Cl)c(Cl)c2)CC1` in the list: activity change, negative = inhibition: inactive: -11.9%
# `COc1cc2c(cc1NC(=O)C(C)Sc1ccc(C)cc1)oc1ccccc12` (stereo unspecified) in the list: Potency: inconclusive: 12.6 µM [inhibitor, single point]
# `CCSc1nnc(NC(=O)C2CCCCC2C(=O)O)s1` (stereo unspecified) in the list: Potency: inconclusive: 35.5 µM [activator, single point]

# Next part

SMILES,Potency,"activity change, negative = inhibition"
COc1ccc2[nH]cc(CCn3ccc(O)c(C/C=C/c4ccccc4)c3=O)c2c1,"inconclusive: 25.1 µM [inhibitor, single point]",–
COc1c2c(nc3occc13)C(CC=C(C)C)(OC)C(OC(C)=O)CC2 (stereo unspecified),–,inactive: -10.8%
CCOC(=O)c1c(N)nn(C(=O)CC)c1-c1ccccc1,"inconclusive: 22.4 µM [inhibitor, partial curve]",–
COc1ccc(-c2csc(Nc3ccc(S(=O)(=O)Nc4cc(C)on4)cc3)n2)cc1,"inconclusive: 20 µM [activator, single point]",–
C=CCNC(=S)N/N=C/c1ccc(N(CC)Cc2ccccc2)cc1,"inconclusive: 35.5 µM [inhibitor, single point]",–
Cc1ccc(C(=O)NCC(=O)N2CCN(S(=O)(=O)c3cccs3)CC2)s1,"inconclusive: 1.58 µM [activator, partial curve]",–
Cc1cccc(N2CCN(C(=O)CSCc3c(C)noc3C)CC2)c1C,active: 7.08 µM,–
CCC(c1nnnn1Cc1ccco1)N(Cc1cc2cc(OC)ccc2[nH]c1=O)C1CCCCC1 (stereo unspecified),"inconclusive: 20 µM [activator, partial curve]",–
COc1cc2ncnc(NCc3ccccc3)c2cc1OC,"inconclusive: 11.2 µM [inhibitor, partial curve, poor fit]",–
CCCOc1ccc(C(C)=O)cc1CSc1nc(O)cc(=O)[nH]1,"inconclusive: 35.5 µM [activator, single point]",–
O=C(OCc1nnn(Cc2ccccc2)c1-c1c(COC(=O)c2ccccc2)nnn1Cc1ccccc1)c1ccccc1,–,inactive: -28.1% [at 9.22 µM]
CCn1c2ccccc2c2cc(C3N=C(N)Nc4nc5ccccc5n43)ccc21 (stereo unspecified),"inconclusive: 1.12 µM [activator, single point]",–
CCOC(=O)C1CCN(Cc2ccc(N(C)C)cc2)CC1,–,inactive: -7.34%
O=C(Oc1ccc2ccccc2c1Br)N1CCCCCC1,"inconclusive: 35.5 µM [inhibitor, single point]",–
CCc1nc(NCc2ccccn2)c2oc3ccccc3c2n1,active: 12.6 µM,–
CCOc1cc(S(=O)(=O)NCc2ccncc2)c(C)cc1C,"inconclusive: 14.1 µM [inhibitor, single point]",–
COC(=O)c1cc(OC)c(OC)cc1NC(=O)C1CCC(=O)N1S(=O)(=O)c1ccc(C)cc1 (stereo unspecified),active: 3.16 µM,–
COc1cccc(C2C3=C(N=c4s/c(=C\c5cccc(O)c5)c(=O)n42)c2ccccc2CC3)c1OC (stereo unspecified),–,inactive: -8.55%
COc1cccc(NC(=O)Cn2c(=O)n(CCC(=O)NC3CCN(Cc4ccccc4)CC3)c(=O)c3ccccc32)c1,–,inactive: -2.69% [at 9.22 µM]
Cc1nnc(Sc2nc3ccccc3o2)c2ccccc12,"inconclusive: 12.6 µM [inhibitor, partial curve, poor fit]",–
CSc1ccc(C(=O)C2CCCN(C(=O)c3cccnc3SC)C2)cc1 (stereo unspecified),–,inactive: 0% [at 9.22 µM]
O=C1COc2ccc(C(=O)NC3CC3)cc2N1,–,inactive: -11.6%
O=C(N/N=C/c1cn(-c2ccccc2)nc1-c1cc2ccccc2o1)c1c[nH]c2ccccc12,–,inactive: 4.96%

# Source: PubChem BioAssay AID1688 (National Center for Advancing Translational Sciences (NCATS), 2009)
